No constants are given. Whether binding was seen depends on the method and setting. Some entries that bind do so weakly or less than the wild type.
B1: L129 (light chain L1/L2 library clone) (Fab, V domains shown)
VH: QVQLQESGPGLVKPSETLSLTCTVSGFSLIGYDINWIRQPPGKGLEWIGMIWGDGTTDYNSALKSRVTISKDTSKNQFSLKLSSVTAADTAVYYCARGGYYYGTSYYFDYWGQGTLVTVS
VL: DIQMTQSPSSLSASVGDRVTITCRASQSISNNLNWYQQKPGKAPKLLIYYTSRFHSGVPSRFSGSGSGTDFTFTISSLQPEDIATYYCQQSKTLPYTFGQGTKLEIKR
B2: L208 (light chain L1/L2 library clone) (Fab, V domains shown)
VH: QVQLQESGPGLVKPSETLSLTCTVSGFSLIGYDINWIRQPPGKGLEWIGMIWGDGTTDYNSALKSRVTISKDTSKNQFSLKLSSVTAADTAVYYCARGGYYYGTSYYFDYWGQGTLVTVS
VL: DIQMTQSPSSLSASVGDRVTITCRASQYISNHLNWYQQKPGKAPKLLIYYTSRFHSGVPSRFSGSGSGTDFTFTISSLQPEDIATYYCQQSKTLPYTFGQGTKLEIKR
B3: L97 (light chain L1/L2 library clone) (Fab, V domains shown)
VH: QVQLQESGPGLVKPSETLSLTCTVSGFSLIGYDINWIRQPPGKGLEWIGMIWGDGTTDYNSALKSRVTISKDTSKNQFSLKLSSVTAADTAVYYCARGGYYYGTSYYFDYWGQGTLVTVS
VL: DIQMTQSPSSLSASVGDRVTITCRASQSISNQLNWYQQKPGKAPKLLIYYVSRFHSGVPSRFSGSGSGTDFTFTISSLQPEDIATYYCQQSKTLPYTFGQGTKLEIKR
B4: L81 (light chain L1/L2 library clone) (Fab, V domains shown)
VH: QVQLQESGPGLVKPSETLSLTCTVSGFSLIGYDINWIRQPPGKGLEWIGMIWGDGTTDYNSALKSRVTISKDTSKNQFSLKLSSVTAADTAVYYCARGGYYYGTSYYFDYWGQGTLVTVS
VL: DIQMTQSPSSLSASVGDRVTITCRAFQAISNQLNWYQQKPGKAPKLLIYYISRFHTGVPSRFSGSGSGTDFTFTISSLQPEDIATYYCQQSKTLPYTFGQGTKLEIKR
B5: L6 (light chain L1/L2 library clone) (Fab, V domains shown)
VH: QVQLQESGPGLVKPSETLSLTCTVSGFSLIGYDINWIRQPPGKGLEWIGMIWGDGTTDYNSALKSRVTISKDTSKNQFSLKLSSVTAADTAVYYCARGGYYYGTSYYFDYWGQGTLVTVS
VL: DIQMTQSPSSLSASVGDRVTITCRAFQSISNQLNWYQQKPGKAPKLLIYYASRFHSGVPSRFSGSGSGTDFTFTISSLQPEDIATYYCQQSKTLPYTFGQGTKLEIKR

Amino acid sequences for entries named in this document (tags omitted). Residues count along the entry.
UniProt P01138, residues 122-241: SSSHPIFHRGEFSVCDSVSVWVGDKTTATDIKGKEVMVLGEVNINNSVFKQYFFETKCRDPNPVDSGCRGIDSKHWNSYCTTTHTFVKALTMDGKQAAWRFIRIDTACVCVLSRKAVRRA

Biological target: human NGF (human, UniProt P01138 122-241, limits assumed)
Assay: BIAcore affinity screening of L1/L2 library Fabs on human NGF

binding, binds:
B1
B2
B3
B4
B5

Reference: patent publication US20100260775A1 (Pfizer, published 2010)
